# In publication PMC10561090, “Modulation of HIV-1 capsid multimerization by sennoside A and sennoside B via interaction with the NTD/CTD interface in capsid hexamer” (Frontiers in Microbiology, 2023):
# Target: T1, HIV-1 CA CTD/CAI interaction (Human immunodeficiency virus type 1 group M subtype B, UniProt P12493)
# T1 construct: DNA encoding the CA CTD was cloned into BamHI-NotI sites of prokaryotic expression vector pGEX-4 T-1; made in house; host or cells: E. coli BL21(DE3)
# Test: biochemical
# Format: binding
# Conditions: read-out: IR (%), inhibitory rate
# Method: The Discovery Probe FDA-approved Drug Library comprised 1,971 compounds, which were available as stock solutions at 10 mM concentrations in DMSO. Primary screening of these compounds was conducted using a previously established HTRF assay ([Zhang et al., 2019]). Briefly, compound (1 μL), CAI-biotin peptide (2 μL) and GST-CA CTD (2 μL) were dispensed into 384-well microplates. After 30 min incubation at room temperature, 5 μL premixed HTRF agents were added. After an additional 1 h incubation at room temperature, the HTRF signal was acquired by reading the plates in a PerkinElmer Envision Multilabel Plate Reader. Data were analyzed and visualized using GraphPad Prism (version 5.0). […] The quality of the assay was determined by calculating the Z’-factor using the following equation: Z’ = 1 - (3 × SDmax + 3 × SDmin) / |μmax - μmin|, where SDmax and SDmin represent the standard deviations of the positive and negative control measurements, respectively, and μmax and μmin represent the means of the respective positive and negative signal controls ([Zhang et al., 1999]).
# We screened a library of 1,971 small molecules, all of which were FDA-approved. Each compound was tested in duplicate at a concentration of 50 μM. […] The remaining compounds were further validated through dose–response analysis using the HTRF assay. […]
structure (smiles),measurement,value
CCCCCCCCCCCCCCCC[n+]1ccccc1 [Cetylpyridinium],inhibition at 50 µM,97.5%
